Some of the results follow. For some assays here: The exact form of the protein is not confirmed.
Key:
Assay in all cases: protein microarray (ProtoArray v5.0), streptavidin-Alexa Fluor 647
Details in all cases: 3'-biotin; 20 mM Tris (pH 7.5), 5 mM MgCl2, 100 mM KCl, 0.1% Tween-20, A/T-rich and random oligonucleotide blockers; temperature not stated; high values mean tight binding
GIMAP6 (human) = test system: GIMAP6 (human)
GLYATL1 (human) = test system: GLYATL1 (human)
GLYATL2 (human) = test system: GLYATL2 (human)
GLYCTK (human) = test system: GLYCTK (human)
GMEB1 (human) = test system: GMEB1 (human)
GMFB (human) = test system: GMFB (human)
GNAO1 = GNAO1 (UniProt P09471)
GNG13 (human) = test system: GNG13 (human)
GNG4 (human) = test system: GNG4 (human)
GNGT1 (human) = test system: GNGT1 (human)
GNMT (human) = test system: GNMT (human)
GNPTAB (human) = test system: GNPTAB (human)
GOLPH2 (human) = test system: GOLPH2 (human)
GPD1 (human) = test system: GPD1 (human)
[1] = test system: GPI transamidase component PIG-S (human)
GPR15 (human) = test system: GPR15 (human)
GPRC5C (human) = test system: GPRC5C (human)
GPSM3 (human) = test system: GPSM3 (human)
GSTA1 (human) = test system: GSTA1 (human)
GSTA3 (human) = test system: GSTA3 (human)

By UniProt entry, the sequences of proteins in these tests, tags left out. Where a name states a change or a piece, a line headed by the entry shows the natural chain unless it says otherwise.
UniProt P09471: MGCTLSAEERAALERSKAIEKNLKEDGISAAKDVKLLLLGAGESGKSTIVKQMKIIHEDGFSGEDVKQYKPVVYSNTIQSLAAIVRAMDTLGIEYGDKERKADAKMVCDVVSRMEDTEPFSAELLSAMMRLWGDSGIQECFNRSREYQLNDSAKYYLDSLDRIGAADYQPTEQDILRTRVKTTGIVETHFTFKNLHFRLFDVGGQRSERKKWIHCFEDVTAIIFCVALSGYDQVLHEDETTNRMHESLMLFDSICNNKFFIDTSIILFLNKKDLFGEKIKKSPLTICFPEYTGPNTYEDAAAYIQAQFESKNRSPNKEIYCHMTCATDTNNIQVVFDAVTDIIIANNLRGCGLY

GGTGACAGGGGTATGGGGAGGGG [G4-2 biotinylated (Ct1)]
binding signal (GIMAP6 (human)): -0.387 z-score
binding signal (GLYATL1 (human)): -0.383 z-score
binding signal (GLYATL2 (human)): -0.363 z-score
binding signal (GLYCTK (human)): -0.374 z-score
binding signal (GMEB1 (human)): -0.378 z-score
binding signal (GMFB (human)): -0.386 z-score
binding signal (GNAO1): -0.369 z-score
binding signal (GNG13 (human)): -0.403 z-score
binding signal (GNG4 (human)): -0.38 z-score
binding signal (GNGT1 (human)): -0.384 z-score
binding signal (GNMT (human)): -0.388 z-score
binding signal (GNPTAB (human)): -0.361 z-score
binding signal (GOLPH2 (human)): -0.374 z-score
binding signal (GPD1 (human)): -0.399 z-score
binding signal [1]: -0.381 z-score
binding signal (GPR15 (human)): -0.363 z-score
binding signal (GPRC5C (human)): -0.376 z-score
binding signal (GPSM3 (human)): -0.397 z-score
binding signal (GSTA1 (human)): -0.382 z-score
binding signal (GSTA3 (human)): -0.389 z-score
